# At least one structure is not confirmed: it was looked up by name or label, or the drawing left a doubt.
# Experiment: Solubility of literature quinones in aqueous electrolytes, reported or estimated from references
# Conditions: 1M ZnSO4, pH 4-5, ref [1]; inferred from oxidized state
compound,measurement,value
O=C1C(=O)C(Cl)=C(Cl)C(Cl)=C1Cl [o-TCBQ],Solubility reduced state,>>2.3 mmol/L

# Reference: patent EP4475229A1, “QUINONE-TYPE MOLECULES FOR ZINC-ION AQUEOUS BATTERIES” (Centre National de la Recherche Scientifique, priority 2023, dated 2024)
